Reference: PubChem BioAssay AID504467 (National Center for Advancing Translational Sciences (NCATS), 2011)
Screen size: about 330,000 compounds; about 7,700 (2.3%) were called active. Inconclusive means that the source gave no clear call. Such entries were picked first, then a sample of the others. Calls follow the shape of the dose curve; as a rule, active = well fitted inhibition curve with a large enough effect; inconclusive = small, poorly fitted or top-dose-only effect, or effect the other way; inactive = flat fitted curve, though single readings scatter. Potencies of inconclusive entries are doubtful fits and often do not repeat.

Test: qHTS screen for small molecules that inhibit ELG1-dependent DNA repair in human embryonic kidney (HEK293T) cells expressing luciferase-tagged ELG1; also: nearly all actives have a fitted effect of over 55% in size
Conditions: HEK293T ELG1-luciferase reporter, luminescence, 16 h, DNA damage induced by 5-fluorouridine; activity change, negative = inhibition: at 46.1 µM (top of the series)
Procedure, shortened: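 Reporter activity after DNA damage by 5-fluorouridine is monitored. Compound-treated cells incubate 16 hr at 37 °C, then ONE-Glo is added for 30 min before luminescence reading.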
% is scaled to controls: 0 for no effect and ±100 for the full control effect; potency is read from the fitted curve at half-maximal effect.

Row | Compound | Potency | activity change, negative = inhibition
1 | O=C1NC(=S)N(c2ccc(F)cc2)C(=O)/C1=C/c1ccccc1O | inconclusive: 18.3 µM [activator, single point] | –
2 | CN(C)c1nc(N(C)C)nc(N(C#N)CCCl)n1 | inconclusive: 20.6 µM [inhibitor, partial curve, poor fit] | –
3 | CCOC(=O)c1c(C)n(COCCO)c2ccc(O)cc12 | – | inactive: -8.72%
4 | COc1cc2c(c(OC)c1OC)-c1ccc(O)c(=O)cc1C(NC(C)=O)CC2 (stereo unspecified) | inconclusive: 18.3 µM [activator, partial curve, poor fit] | –
5 | Cn1c(=O)cc(OCC(=O)N2CCN(C3CCCCC3)CC2)c2ccccc21 | inconclusive: 23.1 µM [activator, partial curve] | –
6 | O=C(Cc1c[nH]c2ccccc12)Nc1nccs1 | inconclusive: 10.3 µM [activator, partial curve] | –
7 | CCOc1ccc2nc(N3CCC(C(=O)N4CCC5(CC4)OCCO5)CC3)sc2c1 | inconclusive: 13 µM [activator, partial curve] | –
8 | O=[N+]([O-])c1ccc(NC2CCN(Cc3ccccc3)CC2)c2ccncc12 | inconclusive: 10.3 µM [inhibitor, partial curve] | –
9 | Cn1nnc(CC[N+](C)(C)C)n1 | – | inactive: -1.88%
10 | COc1ccc(CNCCc2c(C)[nH]c3ccc(OC(F)(F)F)cc23)c(OC)c1 | active: 1.03 µM | –
11 | COC(=O)C1=CO[C@@H](O[C@@H]2O[C@H](CO)[C@@H](O)[C@H](O)[C@H]2O)C2C(CO)=CCC12 (stereo partly specified) | inconclusive: 23.1 µM [activator, partial curve, poor fit] | –
12 | C[C@]12CC[C@H]3C(CCC4(O)CC(O)CC[C@]34C=O)C1=CC[C@H]2c1ccc(=O)oc1 (stereo partly specified) | inconclusive: 29.1 µM [inhibitor, single point] | –
13 | COCCNC(=O)c1c(N)n(CCC(C)C)c2nc3ccccc3nc12 | active: 5.8 µM | –
14 | COc1cc2c(cc1OC)[C@@H]1C(=O)c3ccc4c(c3O[C@@H]1CO2)C[C@H](C(C)C)O4 | active: 0.058 µM | –
15 | CCC(COC(=O)NC)NC(=O)Oc1cccc(C)c1 (stereo unspecified) | inconclusive: 2.51 µM [activator, single point] | –
16 | CN(C)c1ccc(/C=C/[N+](=O)[O-])cc1 | inconclusive: 13 µM [activator, partial curve] | –
17 | CN1CCC2(CC1)NC(=O)c1ccccc1N2 | – | inactive: 9.38%
18 | COCCCNC(=O)Cn1cc(/C=C2\C(=O)NC(=O)N(c3ccccc3F)C2=O)c2ccccc21 | inconclusive: 29.1 µM [activator, single point] | –
19 | CC(=O)Nc1ccc(S(=O)(=O)N(C)CCOCc2ccccc2)cc1 | inconclusive: 29.1 µM [inhibitor, single point] | –
20 | COc1ccc(-c2cc(C(=O)N3CCC4(CC3)OCCO4)c3ccccc3n2)cc1 | inconclusive: 3.26 µM [activator, single point] | –
21 | CC(C)Cc1nnc(NC(=O)CCC(=O)N2CCN(CCOC(c3ccccc3)c3ccccc3)CC2)s1 | – | inactive: -28.7%
22 | COc1ccc(CNCCc2c[nH]c3ccccc23)c(OC)c1OC | – | inactive: -16.7%

Some values from the list.
In activity change, negative = inhibition, `Cn1nnc(CC[N+](C)(C)C)n1` has the entry inactive: -1.88%
In Potency, `COc1cc2c(cc1OC)[C@@H]1C(=O)c3ccc4c(c3O[C@@H]1CO2)C[C@H](C(C)C)O4` has the entry active: 0.058 µM
In activity change, negative = inhibition, `CN1CCC2(CC1)NC(=O)c1ccccc1N2` has the entry inactive: 9.38%

Later entries:

Row | Compound | Potency | activity change, negative = inhibition
23 | O=c1ccc2cc3ccoc3c(O)c2o1 | – | inactive: 14.9%
24 | CCN(CC)c1ccc(/C=C2\C(=O)NC(=O)N(CC3CCCO3)C2=O)cc1 (stereo unspecified) | inconclusive: 29.1 µM [activator, single point] | –
25 | CCOC(=O)c1[nH]c(=O)c2ccccc2c1O | inconclusive: 0.58 µM [inhibitor, full curve] | –
26 | C[C@H]1O[C@@H](O[C@H]2[C@@H](O)C[C@H](O[C@H]3[C@@H](O)C[C@H](O[C@H]4CC[C@@]5(C)[C@H](CC[C@@H]6[C@@H]5CC[C@]5(C)[C@@H](C7=CC(=O)OC7)CC[C@]65O)C4)O[C@@H]3C)O[C@@H]2C)C[C@H](O)[C@@H]1O | active: 0.146 µM | –
27 | Cc1ccc(OP(=O)(NC(C)c2ccccc2)Oc2ccc(C)cc2)cc1 (stereo unspecified) | inconclusive: 25.9 µM [inhibitor, partial curve] | –
28 | Cc1ccc(OCC(=O)N2CCN(Cc3cccnc3)CC2)cc1 | – | inactive: 13.8%
29 | CNS(=O)(=O)c1ccc(-c2ccc(C=C3C(=O)NC(=O)NC3=O)o2)cc1 | – | inactive: 8.35%
30 | COC(=O)C1=C(c2c(C)noc2C)C[C@@H]2CC[C@H]1N2C(=O)NCCNC(C)=O | – | inactive: 26%
31 | CCCCN1CCC(O)(c2ccccc2)C(C(=O)c2ccccc2)C1 (stereo unspecified) | – | inactive: -6.96%
32 | COc1ccc(C(=O)Cn2c(NCCCl)nc3ccccc32)cc1 | – | inactive: -4.86%
33 | C=CCn1c(O)c(C(CC)=NCc2ccco2)c(=O)[nH]c1=O | inconclusive: 16.4 µM [activator, partial curve] | –
34 | Clc1ccc(-c2nc3ccc(Cl)cn3c2CN2CCCCC2)cc1 | inconclusive: 0.231 µM [inhibitor, partial curve, poor fit] | –
35 | CNC(=O)OCCc1n(C)cc[n+]1C | – | inactive: 3.82%
36 | CCCCCn1c(=O)c(C(=O)NCc2ccncc2)c(O)c2ccccc21 | – | inactive: -29%
37 | CCCOP(=O)(O)c1c([N+](=O)[O-])cc(C(F)(F)F)cc1[N+](=O)[O-] (tested in a mixture with another compound) | inconclusive: 18.4 µM [activator, single point] | –
38 | O=C(Nc1cccc(OC(=O)N2CCCCC2)c1)N1CCCCC1 | inconclusive: 18.4 µM [inhibitor, single point] | –
39 | CCNC(=O)O/N=C(\C)c1sc(-c2ccccc2)nc1C | inconclusive: 7.31 µM [activator, partial curve] | –
40 | CCCCOCCCn1c(N)c(C(=O)OC(C)COC)c2nc3ccccc3nc21 (stereo unspecified) | inconclusive: 16.4 µM [inhibitor, partial curve] | –
41 | CCN(CC)C(=O)c1ccc(NC(=O)c2cc(S(=O)(=O)N3CCCCCC3)ccc2OC)cc1 | – | inactive: -15.1%
42 | Cn1c(O)c(C(=NCCc2c[nH]c3ccccc23)c2ccccc2)c(=O)n(C)c1=O | inconclusive: 18.3 µM [inhibitor, single point] | –
43 | COc1ccc(NP(=O)(Oc2ccccc2OC)Oc2ccccc2OC)cc1 | active: 20.6 µM | –
44 | Cc1ccccc1-c1nc(CS(=O)CC(=O)N2CCC3(CC2)OCCO3)c(C)o1 (stereo unspecified) | inconclusive: 29.1 µM [activator, single point] | –

Row | Compound | Potency | activity change, negative = inhibition
45 | Cc1ccc(-c2nc3ccccc3c(=O)n2-c2ncccc2C)cc1 | – | inactive: 8.02%
46 | Cc1ccccc1NP(=O)(Oc1ccccc1F)Oc1ccccc1F | active: 23.1 µM | –
47 | Cc1ccc(NN=C2C(=O)OC(C)(C)OC2=O)c(C)c1 | inconclusive: 14.6 µM [activator, partial curve] | –
48 | CC(=O)O[C@@]12CO[C@@H]1C[C@H](O)[C@@]1(C)C(=O)[C@H](O)C3=C(C)[C@@H](OC(=O)[C@H](O)[C@@H](NC(=O)c4ccccc4)c4ccccc4)C[C@@](O)([C@@H](OC(=O)c4ccccc4)C12)C3(C)C (stereo partly specified) | inconclusive: 0.231 µM [inhibitor, partial curve, poor fit] | –
49 | CCN(CC)C(=O)c1ccc(NC(=O)c2ccc(-n3cncn3)c([N+](=O)[O-])c2)cc1 | – | inactive: 0.741%
50 | Cc1nn(Cc2ccccc2Cl)c(Cl)c1C(=O)OCC(=O)NCc1ccco1 | inconclusive: 18.4 µM [inhibitor, single point] | –
51 | CCn1cc(C=C2C(=O)NC(=O)NC2=O)c2ccccc21 | inconclusive: 20.6 µM [activator, single point] | –
52 | C[N+]12CCC(CC1)C(=C(c1ccccc1)c1ccccc1)C2 | – | inactive: 6.26%
53 | COC(=O)C1=C(c2ccc(Cl)c(C(F)(F)F)c2)C[C@@H]2CC[C@H]1N2C(=O)NCCOc1ccccc1Cl | inconclusive: 16.4 µM [inhibitor, single point] | –
54 | Nc1ccccc1C(=O)OCc1ccc([N+](=O)[O-])cc1 | inconclusive: 20.6 µM [activator, single point] | –
55 | C/C(=C/C=C/[C@@H](C)C(=O)O)[C@H]1CN[C@H](C(=O)O)[C@H]1CC(=O)O | inconclusive: 6.51 µM [inhibitor, partial curve] | –
56 | COC(=O)C1=C(c2ccc(-c3ccccc3)c(F)c2)C[C@@H]2CC[C@H]1N2C(=O)NCCOc1ccc(OC)cc1 | inconclusive: 18.3 µM [inhibitor, single point] | –
57 | CCCCN1C(=O)NC(=O)C2(Cc3c(nc4c(C)cccn4c3=O)N3CCc4ccccc4C32)C1=O (stereo unspecified) | active: 20.6 µM | –
58 | COc1ccc(-c2nn(CCC#N)cc2C(=O)Nc2ccccc2Br)cc1 | – | inactive: -0.954%
59 | C[C@@H]1C[C@@H]([C@H](O)CC2CC(=O)NC(=O)C2)C(=O)[C@@H](C)C1 | active: 0.291 µM | –
60 | Cc1sc2ncnc(N3CCC(C(=O)Nc4ccc(C#N)c(Cl)c4)CC3)c2c1C | inconclusive: 29.1 µM [inhibitor, single point] | –
61 | COc1ccc(N2C(=O)NC(=O)/C(=C\c3cn(CC(=O)N4CCOCC4)c4ccccc34)C2=O)c(OC)c1 | inconclusive: 32.6 µM [activator, partial curve, poor fit] | –
62 | CCCCn1c(=O)c(C=Nc2cc([N+](=O)[O-])ccc2OC)c(O)n(CCCCl)c1=O | active: 20.6 µM | –
63 | CCOC(=O)c1c(C)n(C(C)C)c2ccc(OC(=O)c3ccc(N4C(=O)CCC4=O)cc3)cc12 | inconclusive: 18.4 µM [inhibitor, single point] | –
64 | COCCNC(=O)c1c(NC(=O)c2ccco2)n(Cc2ccccc2)c2nc3ccccc3nc12 | inconclusive: 23.1 µM [inhibitor, partial curve, poor fit] | –
65 | O=C(COc1ccccc1)N1CCN(CCN2C(=O)c3cccc4cccc(c34)C2=O)CC1 | – | inactive: 0.883%
66 | N=C1c2ccccc2CN1c1ccc(F)c([N+](=O)[O-])c1 | – | inactive: -10.8%
